Results are given in words; binding and its absence hold for the method and conditions named. In cells and extracts the contact can be indirect. A yes stands for co-enrichment or nearness to the bait. Other partners may have been found. Tags and fused reporters may be left off the sequences shown.
Biological target: T1, FLAG-tagged CARM1 (coactivator-associated arginine methyltransferase 1) (UniProt Q86X55)
T1 sequence: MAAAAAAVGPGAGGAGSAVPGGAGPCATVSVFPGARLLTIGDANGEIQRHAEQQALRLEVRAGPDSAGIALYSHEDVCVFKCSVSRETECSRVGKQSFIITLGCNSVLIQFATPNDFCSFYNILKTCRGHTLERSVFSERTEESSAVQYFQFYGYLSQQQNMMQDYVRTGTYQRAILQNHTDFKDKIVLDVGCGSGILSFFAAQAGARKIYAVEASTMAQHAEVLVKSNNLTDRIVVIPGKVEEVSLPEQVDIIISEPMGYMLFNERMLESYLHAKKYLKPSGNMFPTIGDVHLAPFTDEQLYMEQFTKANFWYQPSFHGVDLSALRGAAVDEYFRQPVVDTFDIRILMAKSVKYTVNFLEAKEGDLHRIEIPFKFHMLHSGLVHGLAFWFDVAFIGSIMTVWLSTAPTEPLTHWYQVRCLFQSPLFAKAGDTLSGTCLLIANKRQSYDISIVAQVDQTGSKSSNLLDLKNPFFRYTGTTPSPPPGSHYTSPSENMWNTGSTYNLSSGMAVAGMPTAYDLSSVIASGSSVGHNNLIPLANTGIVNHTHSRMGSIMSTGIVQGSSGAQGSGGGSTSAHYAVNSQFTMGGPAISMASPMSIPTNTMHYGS
Assay: affinity purification with mass spectrometry; lysates of MDA-MB-231 cells stably expressing vector or FLAG-CARM1 on an anti-FLAG column, eluted with FLAG peptide, SDS-PAGE, silver stain, LC-MS/MS; verified by Western blot

Protein sequences, listed by entry. Tags and fused reporters are not part of them.
UniProt Q16665: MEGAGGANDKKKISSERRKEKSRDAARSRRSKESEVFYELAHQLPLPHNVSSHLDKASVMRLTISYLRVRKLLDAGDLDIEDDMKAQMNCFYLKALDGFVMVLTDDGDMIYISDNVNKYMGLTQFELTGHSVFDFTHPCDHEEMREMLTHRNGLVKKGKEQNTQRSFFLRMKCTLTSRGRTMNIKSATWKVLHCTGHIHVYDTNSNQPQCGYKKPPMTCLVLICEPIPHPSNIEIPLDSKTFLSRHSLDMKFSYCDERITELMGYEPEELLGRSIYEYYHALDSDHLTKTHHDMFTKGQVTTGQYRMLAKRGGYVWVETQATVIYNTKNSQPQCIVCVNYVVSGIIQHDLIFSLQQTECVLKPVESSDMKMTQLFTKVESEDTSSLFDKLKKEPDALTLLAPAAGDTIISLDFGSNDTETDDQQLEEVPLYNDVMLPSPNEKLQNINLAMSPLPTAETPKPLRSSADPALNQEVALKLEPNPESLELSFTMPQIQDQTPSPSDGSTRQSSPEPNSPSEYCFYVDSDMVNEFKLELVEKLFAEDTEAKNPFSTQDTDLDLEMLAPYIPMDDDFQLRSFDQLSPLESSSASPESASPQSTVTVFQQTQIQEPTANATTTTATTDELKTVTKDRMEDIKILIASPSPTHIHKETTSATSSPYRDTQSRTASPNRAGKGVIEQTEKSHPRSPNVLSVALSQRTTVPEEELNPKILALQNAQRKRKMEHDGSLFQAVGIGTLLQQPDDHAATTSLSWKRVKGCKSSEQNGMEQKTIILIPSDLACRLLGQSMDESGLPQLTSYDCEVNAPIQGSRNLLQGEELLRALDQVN

binding: binds
Substance: Hypoxia-inducible factor-1 subunit alpha (HIF1A), endogenous (from UniProt Q16665 1-826)

— paper PMC11443453
